The supplement of paper PMC8256030
Where “and” joins values, the source holds several entries; their conditions need not be identical. Equal entries are not always repeated. Structures can show the parent of a compound that is named as a salt. This is one part of the list. Repeats in this data set agree poorly, so a single value says little.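 HEK293T cells were given each compound shortly before transfection with a reporter in which red mCherry is followed by the SARS-CoV-2 frameshift element and then GFP in the −1 frame, so GFP appears only after frameshifting.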

Each compound was assayed on SARS-CoV-2 -1 PRF reporter mCherry-FSE-GFP(-1) (assay: mCherry (red) intensity as percent of control; higher = higher upstream reporter expression). Conditions: 10 µM; 24 h; HEK293T.

Structure (SMILES) | mCherry
CO[C@@]1(NC(=O)C2SC(=C(C(N)=O)C(=O)O)S2)C(=O)N2C(C(=O)O)=C(CSc3nnnn3C)CS[C@@H]21 (stereo not given in full) | 82.5%
CCN(CC)Cc1cc(Nc2ccnc3cc(Cl)ccc23)ccc1O | 104%
O=c1oc2ccccc2c(O)c1Cc1c(O)c2ccccc2oc1=O | 107%
CN1CCCC(n2nc(Cc3ccc(Cl)cc3)c3ccccc3c2=O)CC1 (stereo not given) [azelastine] | 99.1%
CCCN(CCC)C(=O)C(CCC(=O)O)NC(=O)c1ccccc1 (stereo not given) [proglumide] | 66.5%
Nc1ccn(C[C@@H](CO)OCP(=O)(O)O)c(=O)n1 [Vistide] | 105%
Nc1nc(=O)n([C@@H]2O[C@H](CO)[C@@H](O)[C@@H]2F)cc1I [fiacitabine] | 99.4%
CNCC(=O)N[C@@H](CCCNC(=N)N)C(=O)N[C@H](C(=O)N[C@@H](Cc1ccc(O)cc1)C(=O)N[C@H](C(=O)N[C@@H](Cc1cnc[nH]1)C(=O)N1CCC[C@H]1C(=O)N[C@@H](C)C(=O)O)C(C)C)C(C)C [saralasin] | 75.8%
CN[C@@H]1[C@H](O)[C@H](NC)[C@H]2O[C@@]3(O)C(=O)C[C@@H](C)O[C@H]3O[C@@H]2[C@H]1O [Spectinomycin·2HCl] | 108%
COc1ccc(CC(C)(C)NC[C@H](O)c2cc(O)cc3c2OCC(=O)N3)cc1 [Olodaterol] | 97.3% and 102%
CCCCCC1C(=O)N2C=C(c3ccccc3)c3ccccc3N2C1=O (stereo not given) [cinnopentazone] | 82.1%
N[C@@H](Cc1c[nH]c2ccc(O)cc12)C(=O)O [oxitriptan] | 102%
O=C(O)[C@@H](S)[C@@H](S)C(=O)O [succimer] | 87.7%
COc1cc2c(cc1OC)-c1c/c(=N\c3c(C)cc(C)cc3C)n(C)c(=O)n1CC2 [Trequinsin·HCl] | 50.4%
Nc1nc2c(ncn2COCCO)c(=O)[nH]1 | 100%
NNC(=O)c1ccncc1 [isoniazid] | 90.1% and 99.8%
CC(C1=C(CCN(C)C)Cc2ccccc21)c1ccccn1 (stereo not given) [dimetindene] | 90.2%
CCN(CC)CCNC(=O)c1cc(S(C)(=O)=O)ccc1OC [tiapride] | 125%
CC1=C(C(=O)O)N2C(=O)[C@@H](NC(=O)[C@H](N)c3ccc(O)cc3)[C@H]2SC1 [cefadroxil] | 94.5%
CN1CCN(CCCCN2C(=O)CN(/N=C/c3ccc(-c4ccc(Cl)cc4)o3)C2=O)CC1 [azimilide] | 95.8%

Look-ups from above:
COc1ccc(CC(C)(C)NC[C@H](O)c2cc(O)cc3c2OCC(=O)N3)cc1 [Olodaterol] | mCherry: 97.3% and 102%
O=c1oc2ccccc2c(O)c1Cc1c(O)c2ccccc2oc1=O | mCherry: 107%

Later entries.

Structure (SMILES) | mCherry
CC(C)C(=O)Oc1ccc(CO)cc1[C@H](CCN(C(C)C)C(C)C)c1ccccc1 [Fesoterodine] | 125%
CCCCC(CC)COc1ccc(-c2nc(-c3ccc(OC)cc3)nc(-c3ccc(OCC(CC)CCCC)cc3O)n2)c(O)c1 (stereo not given) | 106%
C[C@H](CCC(=O)O)[C@H]1CC[C@H]2[C@@H]3CC[C@@H]4C[C@H](O)CC[C@]4(C)[C@H]3C[C@H](O)[C@]12C [deoxycholic acid] | 80.3%
CC1=C(C(=O)O)N2C(=O)[C@@H](NC(=O)[C@H](N)C3=CCC=CC3)[C@H]2SC1 [cefradine] | 73.2%
Cc1c(C(=O)OCCO)[n+]([O-])c2ccccc2[n+]1[O-] [temodox] | 72.1%
Cc1c(Nc2ncccc2C(=O)O)cccc1C(F)(F)F [flunixin] | 154%
CCOC(=O)C(C#N)=C(c1ccccc1)c1ccccc1 [etocrilene] | 96.3%
O=c1oc2cc(O)ccc2s1 [tioxolone] | 99.8%
C[C@@H](O)[C@H]1C(=O)N2C(C(=O)O)=C(S[C@@H]3CN[C@H](C(=O)N(C)C)C3)[C@H](C)[C@H]12 [Meropenem] | 81.4%
COc1ccc([C@]2(C#N)CC[C@@H](C(=O)O)CC2)cc1OC1CCCC1 [cilomilast] | 70.7%
C[C@@H](c1ncncc1F)[C@](O)(Cn1cncn1)c1ccc(F)cc1F [voriconazole] | 90.6%
CC(CC(c1ccccc1)c1ccccc1)NC(C)(C)C (stereo not given) [terodiline] | 71.7%
Oc1cc(O)c(Cl)cn1 [gimeracil] | 92.2%
CN1CCC(OC(=O)C(Oc2ccc(Cl)cc2)Oc2ccc(Cl)cc2)CC1 [lifibrate] | 79%
N=C(N=C(N)N)N1CCOCC1 | 96.1%
CCOC(=O)c1ccc(O)cc1 | 111%
CC1(C)O[C@@H]2C[C@H]3[C@@H]4CCC5=CC(=O)C=C[C@]5(C)[C@H]4[C@@H](O)C[C@]3(C)[C@]2(C(=O)CO)O1 [desonide] | 102%
CC(C)CCCC(C)NCCC(C)C (stereo not given) [octamylamine] | 88.1%
O=C(O)c1ccc(NC(=O)[C@H](Cc2ccc(O)cc2)NC(=O)c2ccccc2)cc1 [Chymex] | 121%
O=C(NNCS(=O)(=O)O)c1ccncc1 [methaniazide] | 94.5%
